The text below walks through data of article PMC12540644.

No constants are given. Whether binding was seen depends on the method and setting. In cells and extracts the contact can be indirect. Some entries that bind do so weakly or less than the wild type. For some of these results: Sequences can lack the tags named with a protein.

One assay has as its target T1, GST–14-3-3β (mouse) (UniProt Q9CQV8).
T1 sequence: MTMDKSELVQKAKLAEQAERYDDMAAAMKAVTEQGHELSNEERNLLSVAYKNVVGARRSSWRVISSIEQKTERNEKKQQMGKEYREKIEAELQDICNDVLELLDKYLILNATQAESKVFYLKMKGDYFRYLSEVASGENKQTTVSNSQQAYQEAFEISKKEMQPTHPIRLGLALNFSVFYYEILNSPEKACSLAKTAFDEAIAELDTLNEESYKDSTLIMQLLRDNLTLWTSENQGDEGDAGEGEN
Nature of the assay: pull-down; GST–14-3-3β on Glutathione Sepharose 4B; EGFP-tagged proteins in HeLa cell lysates; immunoblotting; only the target purified.

The next assay deals with T2, KGN–14-3-3β (mouse) (UniProt Q9CQV8).
T2 sequence: T1 sequence
Nature of the assay: split reporter; BiFC (Kusabira-Green) between KGN–14-3-3β and KGC–A/B/C/DA-Raf in living MDCK cells, 48 h after transfection, 37°C.

For the molecule EGFP–C-Raf (from UniProt P04049 1-648), the binding entry with GST–14-3-3β (mouse) is given as “binds”.

Turning to KGC–C-Raf (from UniProt P04049 1-648), in the assay with KGN–14-3-3β (mouse), the binding entry was “binds”.

B1: EGFP–A-Raf (protein, UniProt P04627 1-604)
chain: MEPPRGPPVSGAEPSRAVGTVKVYLPNKQRTVVTVREGMSVYDSLDKALKVRGLNQDCCVVYRLIKGRKTVTAWDTAIAPLDGEELIVEVLEDVPLTMHNFVRKTFFSLAFCDFCLKFLFHGFRCQTCGYKFHQHCSSKVPTVCVDMSTNRRQFYHSIQDLSGGSRQQEAPSNLSVNELLTPQGPSPFTQQRDQEHFSFPAPANPPLQRIRSTSTPNVHMVSTTAPMDSSLMQFTAQSFSTDAAGRGGDGAPRGSPSPASVSSGRKSPHSKLPSEQRERKSLADEKKKVKNLGYRDSGYYWEVPPSEVQLLKRIGTGSFGTVFRGRWHGDVAVKVLKVAQPTAEQAQAFKNEMQVLRKTRHVNILLFMGFMTRPGFAIITQWCEGSSLYHHLHVADTRFDMVQLIDVARQTAQGMDYLHAKNIIHRDLKSNNIFLHEGLTVKIGDFGLATVKTRWSGAQPLEQPSGSVLWMAAEVIRMQDPNPYSFQSDVYAYGVVLYELMTGSLPYSHIGSRDQIIFMVGRGYLSPDLSKIFSNCPKAMRRLLTDCLKFQREERPLFPQILATIELLQRSLPKIERSASEPSLHRTQADELPACLLSAARLVP
In the case of B1, in the assay with GST–14-3-3β (mouse), the binding entry is on record as “binds”.

B2: KGC–A-Raf (protein, UniProt P04627 1-604)
chain: B1 chain
Regarding B2, the binding result with KGN–14-3-3β (mouse) is listed as “binds”.
